From article doi:10.1101/2023.02.03.526778
Results are given in words; binding and its absence hold for the method and conditions named. Some binding calls cover weakened binding; strength is not graded here.

Protein sequences, listed by entry. Tags and fused reporters are not part of them. Residues count along the entry.
UniProt P04114, residues 28-4563: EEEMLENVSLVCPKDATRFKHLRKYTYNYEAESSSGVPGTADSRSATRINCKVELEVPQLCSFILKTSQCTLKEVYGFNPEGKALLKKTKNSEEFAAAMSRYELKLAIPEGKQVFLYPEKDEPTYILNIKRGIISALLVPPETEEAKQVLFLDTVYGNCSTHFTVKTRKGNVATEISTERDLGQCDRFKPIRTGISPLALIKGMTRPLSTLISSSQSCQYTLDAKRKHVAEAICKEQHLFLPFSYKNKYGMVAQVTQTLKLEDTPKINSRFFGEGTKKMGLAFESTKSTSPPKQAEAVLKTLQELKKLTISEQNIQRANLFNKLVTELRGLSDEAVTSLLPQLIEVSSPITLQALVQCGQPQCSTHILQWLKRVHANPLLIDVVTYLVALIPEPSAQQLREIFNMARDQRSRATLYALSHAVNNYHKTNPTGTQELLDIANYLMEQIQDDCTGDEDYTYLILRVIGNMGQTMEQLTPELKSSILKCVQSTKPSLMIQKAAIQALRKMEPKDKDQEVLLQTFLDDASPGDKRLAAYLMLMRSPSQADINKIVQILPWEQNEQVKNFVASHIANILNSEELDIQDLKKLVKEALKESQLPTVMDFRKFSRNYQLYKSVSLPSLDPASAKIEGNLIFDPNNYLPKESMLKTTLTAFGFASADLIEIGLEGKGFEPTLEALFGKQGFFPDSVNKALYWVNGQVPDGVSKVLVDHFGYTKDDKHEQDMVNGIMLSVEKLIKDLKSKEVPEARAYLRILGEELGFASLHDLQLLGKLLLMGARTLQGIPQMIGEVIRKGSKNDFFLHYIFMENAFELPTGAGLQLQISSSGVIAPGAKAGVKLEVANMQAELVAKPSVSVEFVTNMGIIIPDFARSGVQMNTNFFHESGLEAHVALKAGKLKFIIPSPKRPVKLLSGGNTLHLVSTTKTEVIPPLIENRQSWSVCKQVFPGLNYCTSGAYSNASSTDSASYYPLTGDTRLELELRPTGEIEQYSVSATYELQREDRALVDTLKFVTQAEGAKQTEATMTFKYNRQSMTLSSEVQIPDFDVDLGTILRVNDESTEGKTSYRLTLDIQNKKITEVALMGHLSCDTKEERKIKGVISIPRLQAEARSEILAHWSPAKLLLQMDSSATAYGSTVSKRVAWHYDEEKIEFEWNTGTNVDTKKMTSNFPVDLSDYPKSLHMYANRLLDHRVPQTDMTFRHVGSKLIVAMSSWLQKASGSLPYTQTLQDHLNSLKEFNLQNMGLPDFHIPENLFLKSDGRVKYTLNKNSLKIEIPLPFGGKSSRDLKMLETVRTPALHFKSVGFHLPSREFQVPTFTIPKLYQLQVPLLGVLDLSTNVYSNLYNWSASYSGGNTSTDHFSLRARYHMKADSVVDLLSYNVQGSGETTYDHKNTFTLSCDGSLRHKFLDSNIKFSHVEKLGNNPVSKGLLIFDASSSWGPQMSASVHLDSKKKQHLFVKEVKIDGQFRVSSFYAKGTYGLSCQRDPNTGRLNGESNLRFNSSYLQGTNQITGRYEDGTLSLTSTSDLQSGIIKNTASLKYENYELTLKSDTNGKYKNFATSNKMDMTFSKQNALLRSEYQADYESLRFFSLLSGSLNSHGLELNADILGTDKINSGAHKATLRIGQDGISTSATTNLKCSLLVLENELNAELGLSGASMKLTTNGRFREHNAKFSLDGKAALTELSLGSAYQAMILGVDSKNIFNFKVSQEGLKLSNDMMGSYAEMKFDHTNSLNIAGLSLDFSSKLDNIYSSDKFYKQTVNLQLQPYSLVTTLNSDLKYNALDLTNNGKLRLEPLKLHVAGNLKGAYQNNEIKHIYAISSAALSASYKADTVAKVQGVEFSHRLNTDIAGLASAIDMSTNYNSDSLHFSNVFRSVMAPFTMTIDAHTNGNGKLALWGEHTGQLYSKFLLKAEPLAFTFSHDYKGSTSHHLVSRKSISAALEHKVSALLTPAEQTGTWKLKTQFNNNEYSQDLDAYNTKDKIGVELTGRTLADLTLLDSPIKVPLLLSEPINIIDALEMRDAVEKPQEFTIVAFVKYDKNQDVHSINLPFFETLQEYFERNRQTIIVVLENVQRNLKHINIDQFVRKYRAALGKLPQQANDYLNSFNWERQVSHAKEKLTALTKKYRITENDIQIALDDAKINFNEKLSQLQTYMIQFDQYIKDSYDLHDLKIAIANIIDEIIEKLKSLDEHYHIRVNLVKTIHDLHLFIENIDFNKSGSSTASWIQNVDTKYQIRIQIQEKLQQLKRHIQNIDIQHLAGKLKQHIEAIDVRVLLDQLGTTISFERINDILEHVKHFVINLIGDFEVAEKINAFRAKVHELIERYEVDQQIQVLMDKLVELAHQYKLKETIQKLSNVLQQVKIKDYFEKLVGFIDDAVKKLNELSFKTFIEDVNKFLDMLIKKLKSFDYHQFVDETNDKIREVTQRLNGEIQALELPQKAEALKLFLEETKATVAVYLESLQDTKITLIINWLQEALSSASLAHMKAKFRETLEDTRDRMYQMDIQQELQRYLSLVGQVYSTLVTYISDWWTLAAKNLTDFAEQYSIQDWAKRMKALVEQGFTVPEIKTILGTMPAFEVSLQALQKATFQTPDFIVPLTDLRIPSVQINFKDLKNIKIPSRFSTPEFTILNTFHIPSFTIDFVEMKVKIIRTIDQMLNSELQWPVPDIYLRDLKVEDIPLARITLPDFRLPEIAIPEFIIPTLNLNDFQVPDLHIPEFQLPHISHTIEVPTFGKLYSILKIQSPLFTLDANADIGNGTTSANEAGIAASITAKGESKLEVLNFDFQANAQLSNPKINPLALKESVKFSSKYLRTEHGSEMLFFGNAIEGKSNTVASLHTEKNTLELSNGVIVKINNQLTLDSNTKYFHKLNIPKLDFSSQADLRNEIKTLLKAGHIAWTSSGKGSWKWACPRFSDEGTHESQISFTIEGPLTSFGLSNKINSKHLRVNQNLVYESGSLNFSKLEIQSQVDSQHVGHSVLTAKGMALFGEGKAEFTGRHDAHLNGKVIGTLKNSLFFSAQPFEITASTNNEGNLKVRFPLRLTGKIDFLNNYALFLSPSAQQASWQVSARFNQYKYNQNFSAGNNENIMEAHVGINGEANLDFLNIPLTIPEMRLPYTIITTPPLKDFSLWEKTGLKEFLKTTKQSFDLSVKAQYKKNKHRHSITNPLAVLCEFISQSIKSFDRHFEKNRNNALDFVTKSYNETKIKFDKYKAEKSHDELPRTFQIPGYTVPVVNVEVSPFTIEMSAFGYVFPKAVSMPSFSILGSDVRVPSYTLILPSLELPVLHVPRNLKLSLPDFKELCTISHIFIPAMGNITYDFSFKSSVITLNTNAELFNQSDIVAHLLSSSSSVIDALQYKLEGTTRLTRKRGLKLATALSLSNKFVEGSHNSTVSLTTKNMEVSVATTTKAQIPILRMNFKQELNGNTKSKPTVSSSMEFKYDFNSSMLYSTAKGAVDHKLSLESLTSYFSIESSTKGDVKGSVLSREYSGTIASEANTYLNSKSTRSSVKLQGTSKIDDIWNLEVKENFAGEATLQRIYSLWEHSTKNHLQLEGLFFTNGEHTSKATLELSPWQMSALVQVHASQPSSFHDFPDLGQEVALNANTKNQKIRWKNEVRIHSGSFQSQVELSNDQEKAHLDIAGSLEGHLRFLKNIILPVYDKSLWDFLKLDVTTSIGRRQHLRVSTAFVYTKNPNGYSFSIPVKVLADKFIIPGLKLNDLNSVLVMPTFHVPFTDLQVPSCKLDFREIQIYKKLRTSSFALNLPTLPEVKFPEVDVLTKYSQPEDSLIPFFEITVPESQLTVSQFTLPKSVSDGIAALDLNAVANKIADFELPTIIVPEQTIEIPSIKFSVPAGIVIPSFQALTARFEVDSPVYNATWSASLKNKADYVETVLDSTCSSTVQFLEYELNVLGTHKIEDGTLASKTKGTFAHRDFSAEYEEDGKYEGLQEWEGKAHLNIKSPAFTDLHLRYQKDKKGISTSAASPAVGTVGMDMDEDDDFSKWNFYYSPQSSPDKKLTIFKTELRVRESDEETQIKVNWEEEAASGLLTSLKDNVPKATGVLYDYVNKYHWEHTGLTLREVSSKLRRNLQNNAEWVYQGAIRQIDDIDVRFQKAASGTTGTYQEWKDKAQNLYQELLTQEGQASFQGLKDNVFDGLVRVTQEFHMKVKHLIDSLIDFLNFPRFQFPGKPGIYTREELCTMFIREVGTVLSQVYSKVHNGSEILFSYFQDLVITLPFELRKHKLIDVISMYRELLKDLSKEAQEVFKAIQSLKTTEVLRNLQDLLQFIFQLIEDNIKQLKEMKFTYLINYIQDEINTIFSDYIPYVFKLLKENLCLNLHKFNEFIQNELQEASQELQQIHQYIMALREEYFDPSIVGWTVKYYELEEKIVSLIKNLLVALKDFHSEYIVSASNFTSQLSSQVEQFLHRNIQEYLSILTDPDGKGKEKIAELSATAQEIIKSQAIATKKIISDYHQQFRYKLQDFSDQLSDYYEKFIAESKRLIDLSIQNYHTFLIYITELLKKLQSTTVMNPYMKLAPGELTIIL

Molecular target: murine LDLR (mLDLR) expressed by N2A cells (mouse (endogenous in Neuro-2a)) (UniProt P35951)
Assay: flow cytometry on cells

binding: binds
Substance: LDL particles (DiI-LDL) (from UniProt P04114 28-4563) (ligand)
